Literature values in patent publication US20040096356A1, “Assay device for determining analytes in a liquid dairy product” (priority 1997, published 2004).

System: protein isolated from an antibiotic-sensitive microorganism, such as Bacillus stearothermophilus
Conditions: milk; according to Example 1 of EP 593 112; cited from earlier work

For `CC(=O)OCC1=C(C(=O)O)N2C(=O)[C@@H](NC(=O)CSc3ccncc3)[C@H]2SC1` [Cephapirin, cephapirin], which “concentration down to which the test detects the antibiotic” value is on record?
The value was 5 ppb.
